Reference: the supplement of paper PMC12067093, “Discovery and optimisation of a covalent ligand for TRIM25 and its application to targeted protein ubiquitination” (Chemical Science, 2025)
This is one part of the list.

Amino acid sequences for entries named in this document (tags omitted). A change or cut given only in a name is not applied to a line headed by its entry.
UniProt Q06210: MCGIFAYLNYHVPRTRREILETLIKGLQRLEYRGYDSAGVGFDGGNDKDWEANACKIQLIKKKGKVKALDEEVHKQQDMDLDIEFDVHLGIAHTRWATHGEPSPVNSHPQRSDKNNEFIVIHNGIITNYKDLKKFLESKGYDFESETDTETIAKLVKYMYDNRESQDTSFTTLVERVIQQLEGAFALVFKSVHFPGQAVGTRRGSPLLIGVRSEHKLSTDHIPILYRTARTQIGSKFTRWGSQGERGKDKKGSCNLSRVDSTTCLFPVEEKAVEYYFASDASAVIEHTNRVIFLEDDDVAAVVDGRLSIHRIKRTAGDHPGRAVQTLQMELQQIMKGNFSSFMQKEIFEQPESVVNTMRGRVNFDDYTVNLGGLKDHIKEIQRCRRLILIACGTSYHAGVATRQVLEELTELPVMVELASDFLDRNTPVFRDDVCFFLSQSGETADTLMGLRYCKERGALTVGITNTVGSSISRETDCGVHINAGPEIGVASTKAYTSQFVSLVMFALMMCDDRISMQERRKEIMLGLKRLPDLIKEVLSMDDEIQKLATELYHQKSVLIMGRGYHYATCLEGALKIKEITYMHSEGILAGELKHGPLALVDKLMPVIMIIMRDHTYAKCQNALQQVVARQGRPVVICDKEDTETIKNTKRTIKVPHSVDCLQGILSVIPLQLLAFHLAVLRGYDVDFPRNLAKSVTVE
UniProt Q96C23: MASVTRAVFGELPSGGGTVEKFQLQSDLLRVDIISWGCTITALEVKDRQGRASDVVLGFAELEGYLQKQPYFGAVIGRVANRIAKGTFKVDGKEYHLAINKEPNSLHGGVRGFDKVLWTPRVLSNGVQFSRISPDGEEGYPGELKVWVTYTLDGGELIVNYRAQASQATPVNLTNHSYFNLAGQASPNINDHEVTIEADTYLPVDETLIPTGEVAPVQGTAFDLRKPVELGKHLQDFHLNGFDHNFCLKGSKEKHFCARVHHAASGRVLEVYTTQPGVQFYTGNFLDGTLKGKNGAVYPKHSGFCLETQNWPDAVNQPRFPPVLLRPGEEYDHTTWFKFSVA
UniProt P48507: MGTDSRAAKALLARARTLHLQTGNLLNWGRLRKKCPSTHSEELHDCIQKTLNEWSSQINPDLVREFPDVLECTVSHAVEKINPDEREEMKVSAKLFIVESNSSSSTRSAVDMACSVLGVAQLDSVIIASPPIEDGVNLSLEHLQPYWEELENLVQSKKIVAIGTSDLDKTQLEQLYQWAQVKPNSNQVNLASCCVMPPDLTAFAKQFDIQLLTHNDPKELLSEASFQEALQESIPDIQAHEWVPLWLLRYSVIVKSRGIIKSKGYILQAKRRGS
UniProt Q14C86: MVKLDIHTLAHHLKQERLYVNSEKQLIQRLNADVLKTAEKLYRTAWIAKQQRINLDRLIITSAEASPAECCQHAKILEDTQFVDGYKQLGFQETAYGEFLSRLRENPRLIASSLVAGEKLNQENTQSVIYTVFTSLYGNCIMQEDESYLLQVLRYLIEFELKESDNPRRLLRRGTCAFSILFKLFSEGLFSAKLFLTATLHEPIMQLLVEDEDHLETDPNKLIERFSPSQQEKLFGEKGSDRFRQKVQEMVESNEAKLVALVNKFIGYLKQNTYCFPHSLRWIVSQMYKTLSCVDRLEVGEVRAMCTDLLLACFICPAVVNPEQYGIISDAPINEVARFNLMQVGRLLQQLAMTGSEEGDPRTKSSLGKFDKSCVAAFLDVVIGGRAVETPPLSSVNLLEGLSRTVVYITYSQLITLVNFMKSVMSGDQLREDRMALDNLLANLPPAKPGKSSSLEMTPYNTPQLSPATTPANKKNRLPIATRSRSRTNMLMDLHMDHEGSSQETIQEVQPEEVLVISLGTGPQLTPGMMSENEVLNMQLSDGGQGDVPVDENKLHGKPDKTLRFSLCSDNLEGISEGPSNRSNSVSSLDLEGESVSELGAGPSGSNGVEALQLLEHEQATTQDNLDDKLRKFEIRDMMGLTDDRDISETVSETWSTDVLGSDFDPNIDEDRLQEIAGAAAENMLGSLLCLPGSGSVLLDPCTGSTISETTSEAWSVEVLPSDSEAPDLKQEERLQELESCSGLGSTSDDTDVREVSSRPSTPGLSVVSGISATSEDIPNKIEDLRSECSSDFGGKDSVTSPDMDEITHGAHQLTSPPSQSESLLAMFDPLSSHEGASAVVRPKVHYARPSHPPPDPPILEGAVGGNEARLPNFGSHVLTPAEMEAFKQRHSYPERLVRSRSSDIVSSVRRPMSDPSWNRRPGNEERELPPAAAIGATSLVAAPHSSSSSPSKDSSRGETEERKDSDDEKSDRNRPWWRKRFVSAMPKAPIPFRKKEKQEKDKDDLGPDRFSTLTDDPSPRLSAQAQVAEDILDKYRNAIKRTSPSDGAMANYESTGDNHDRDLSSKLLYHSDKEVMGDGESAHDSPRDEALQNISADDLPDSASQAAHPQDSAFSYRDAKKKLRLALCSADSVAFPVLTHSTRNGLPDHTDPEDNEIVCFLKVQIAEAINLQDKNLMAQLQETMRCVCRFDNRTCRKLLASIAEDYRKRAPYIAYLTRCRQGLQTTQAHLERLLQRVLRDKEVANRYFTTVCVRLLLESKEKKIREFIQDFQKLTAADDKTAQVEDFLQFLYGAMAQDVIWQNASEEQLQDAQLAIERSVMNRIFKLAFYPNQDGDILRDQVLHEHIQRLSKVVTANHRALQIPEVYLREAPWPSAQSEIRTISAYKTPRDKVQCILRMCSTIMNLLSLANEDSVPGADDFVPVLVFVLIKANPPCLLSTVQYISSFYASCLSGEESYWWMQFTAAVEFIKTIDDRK
UniProt Q92616, whole entry, looked up: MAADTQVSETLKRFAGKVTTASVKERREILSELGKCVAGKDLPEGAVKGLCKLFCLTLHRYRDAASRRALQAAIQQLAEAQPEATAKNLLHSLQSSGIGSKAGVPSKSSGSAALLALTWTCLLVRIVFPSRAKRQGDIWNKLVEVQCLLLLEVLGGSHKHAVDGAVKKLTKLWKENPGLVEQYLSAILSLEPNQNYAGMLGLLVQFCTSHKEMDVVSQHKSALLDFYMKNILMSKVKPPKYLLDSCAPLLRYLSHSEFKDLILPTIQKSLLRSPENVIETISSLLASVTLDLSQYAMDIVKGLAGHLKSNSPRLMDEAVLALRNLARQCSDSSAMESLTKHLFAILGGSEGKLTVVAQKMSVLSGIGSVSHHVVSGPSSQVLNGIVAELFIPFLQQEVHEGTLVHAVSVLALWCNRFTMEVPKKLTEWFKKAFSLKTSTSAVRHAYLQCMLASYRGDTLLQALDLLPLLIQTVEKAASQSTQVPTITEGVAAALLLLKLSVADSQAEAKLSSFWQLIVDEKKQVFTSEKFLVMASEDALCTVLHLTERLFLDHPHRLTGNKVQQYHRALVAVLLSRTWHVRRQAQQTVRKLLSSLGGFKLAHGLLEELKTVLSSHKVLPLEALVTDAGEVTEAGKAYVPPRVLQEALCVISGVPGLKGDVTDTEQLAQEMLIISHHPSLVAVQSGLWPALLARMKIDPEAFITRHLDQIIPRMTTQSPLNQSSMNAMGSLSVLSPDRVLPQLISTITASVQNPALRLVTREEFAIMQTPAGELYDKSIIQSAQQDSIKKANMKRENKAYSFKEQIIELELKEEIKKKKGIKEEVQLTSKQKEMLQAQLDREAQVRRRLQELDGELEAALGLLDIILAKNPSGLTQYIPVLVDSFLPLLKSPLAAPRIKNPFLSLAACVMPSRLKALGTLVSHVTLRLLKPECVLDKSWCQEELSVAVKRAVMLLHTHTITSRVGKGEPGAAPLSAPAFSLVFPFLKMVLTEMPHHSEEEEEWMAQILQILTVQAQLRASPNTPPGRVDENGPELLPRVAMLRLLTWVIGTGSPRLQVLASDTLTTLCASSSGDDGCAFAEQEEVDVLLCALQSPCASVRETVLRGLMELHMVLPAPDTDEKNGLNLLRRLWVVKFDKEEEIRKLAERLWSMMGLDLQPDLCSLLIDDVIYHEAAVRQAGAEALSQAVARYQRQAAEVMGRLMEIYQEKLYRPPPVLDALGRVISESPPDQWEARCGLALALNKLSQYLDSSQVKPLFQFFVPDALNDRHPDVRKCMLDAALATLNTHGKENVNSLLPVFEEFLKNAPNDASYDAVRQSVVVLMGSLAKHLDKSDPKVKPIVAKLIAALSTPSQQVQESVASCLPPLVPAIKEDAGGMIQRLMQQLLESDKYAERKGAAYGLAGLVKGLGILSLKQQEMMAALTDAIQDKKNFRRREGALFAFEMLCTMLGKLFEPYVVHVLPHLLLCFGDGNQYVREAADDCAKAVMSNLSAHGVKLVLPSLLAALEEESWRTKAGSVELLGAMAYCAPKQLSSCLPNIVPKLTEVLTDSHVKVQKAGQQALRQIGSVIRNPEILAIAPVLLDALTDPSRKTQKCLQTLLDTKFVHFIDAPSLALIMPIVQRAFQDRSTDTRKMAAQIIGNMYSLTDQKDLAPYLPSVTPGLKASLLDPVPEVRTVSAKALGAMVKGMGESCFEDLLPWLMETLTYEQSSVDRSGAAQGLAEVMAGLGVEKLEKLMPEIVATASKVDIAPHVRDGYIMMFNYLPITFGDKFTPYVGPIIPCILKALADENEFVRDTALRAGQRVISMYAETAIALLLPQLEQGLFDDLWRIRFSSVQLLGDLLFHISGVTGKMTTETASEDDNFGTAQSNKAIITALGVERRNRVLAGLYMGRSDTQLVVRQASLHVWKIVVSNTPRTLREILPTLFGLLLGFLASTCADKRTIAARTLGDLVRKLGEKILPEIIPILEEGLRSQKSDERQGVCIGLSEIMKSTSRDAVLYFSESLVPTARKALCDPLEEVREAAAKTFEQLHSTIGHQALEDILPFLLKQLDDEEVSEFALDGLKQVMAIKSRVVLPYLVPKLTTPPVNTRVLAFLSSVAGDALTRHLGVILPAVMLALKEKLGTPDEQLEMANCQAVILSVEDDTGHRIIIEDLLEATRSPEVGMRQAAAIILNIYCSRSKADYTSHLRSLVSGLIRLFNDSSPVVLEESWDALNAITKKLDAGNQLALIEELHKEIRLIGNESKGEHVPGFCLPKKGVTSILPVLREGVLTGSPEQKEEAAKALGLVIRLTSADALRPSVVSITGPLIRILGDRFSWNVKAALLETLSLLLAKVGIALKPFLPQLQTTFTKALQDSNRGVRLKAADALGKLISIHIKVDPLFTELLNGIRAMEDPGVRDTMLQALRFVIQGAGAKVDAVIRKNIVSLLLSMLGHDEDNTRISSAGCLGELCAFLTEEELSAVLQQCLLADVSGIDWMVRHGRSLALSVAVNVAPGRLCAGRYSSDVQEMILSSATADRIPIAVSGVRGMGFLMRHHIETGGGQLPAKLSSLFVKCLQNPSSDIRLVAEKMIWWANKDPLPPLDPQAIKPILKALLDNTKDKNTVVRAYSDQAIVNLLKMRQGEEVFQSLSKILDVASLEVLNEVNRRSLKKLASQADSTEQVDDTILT
UniProt Q9UG22: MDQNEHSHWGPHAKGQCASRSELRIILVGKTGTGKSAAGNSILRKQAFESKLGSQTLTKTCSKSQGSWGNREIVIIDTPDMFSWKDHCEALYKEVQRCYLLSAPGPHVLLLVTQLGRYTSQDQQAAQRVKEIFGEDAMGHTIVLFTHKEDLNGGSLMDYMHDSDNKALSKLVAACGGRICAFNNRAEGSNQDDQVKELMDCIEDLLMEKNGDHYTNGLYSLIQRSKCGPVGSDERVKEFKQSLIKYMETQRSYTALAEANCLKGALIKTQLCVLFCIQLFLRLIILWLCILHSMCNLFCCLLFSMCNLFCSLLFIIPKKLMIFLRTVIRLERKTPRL
UniProt Q9NY12: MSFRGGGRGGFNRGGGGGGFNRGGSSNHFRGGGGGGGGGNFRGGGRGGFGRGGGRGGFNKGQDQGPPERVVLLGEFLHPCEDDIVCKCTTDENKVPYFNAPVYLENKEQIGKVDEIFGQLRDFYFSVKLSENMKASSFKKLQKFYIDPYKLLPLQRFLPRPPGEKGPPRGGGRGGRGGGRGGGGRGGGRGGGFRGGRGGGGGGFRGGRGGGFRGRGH
UniProt Q10471: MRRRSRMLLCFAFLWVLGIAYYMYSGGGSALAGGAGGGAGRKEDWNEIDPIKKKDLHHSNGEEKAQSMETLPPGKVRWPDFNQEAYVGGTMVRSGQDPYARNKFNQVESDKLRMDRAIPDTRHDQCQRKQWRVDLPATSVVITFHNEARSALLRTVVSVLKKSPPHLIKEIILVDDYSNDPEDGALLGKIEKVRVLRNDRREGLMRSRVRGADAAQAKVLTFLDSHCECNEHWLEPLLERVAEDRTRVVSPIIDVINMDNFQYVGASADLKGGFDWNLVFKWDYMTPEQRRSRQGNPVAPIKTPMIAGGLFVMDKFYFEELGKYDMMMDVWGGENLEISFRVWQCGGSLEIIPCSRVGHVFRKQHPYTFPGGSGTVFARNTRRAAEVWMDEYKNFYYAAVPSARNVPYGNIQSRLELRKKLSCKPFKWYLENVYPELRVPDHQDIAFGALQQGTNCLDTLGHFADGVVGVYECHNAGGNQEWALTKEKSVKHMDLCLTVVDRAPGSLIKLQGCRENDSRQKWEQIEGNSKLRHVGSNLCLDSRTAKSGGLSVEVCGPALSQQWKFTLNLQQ

Compound: CC1Cc2ccccc2N1C(=O)C1CCCN(C1)C(=O)CCl (mixture of isomers) [TRIM25 ligand 11 (diastereomer mixture)]
Assay: probe-labelled cysteine peptide fold change vs DMSO (competition) (log2 fold change); higher = less target engagement (more negative = stronger competition)
Conditions: THP-1, incubation time: 4 h
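Also: competitive chemoproteomic profiling in live THP-1 cells with an iodoacetamide desthiobiotin (IA-DTB) probe, comparing probe-labelled peptide intensities in compound-treated cells against DMSO-treated controls.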

| Target | probe-labelled cysteine peptide fold change (10 µM) | probe-labelled cysteine peptide fold change (50 µM) |
| --- | --- | --- |
| GFPT1_Q06210_435_DDVCFFLSQSGETADTLMGLR (UniProt Q06210) | 0.373 | 0.503 |
| GEMIN8_Q9NWZ8_180_QQQLDAERLDSYVNADHDLYCNTR (UniProt Q9NWZ8) | -0.131 | -0.194 |
| GDE1_Q9NZC3_127_LCDLTFEQIR (UniProt Q9NZC3) | -0.0132 | -0.171 |
| GALM_Q96C23_247_HLQDFHLNGFDHNFCLK (UniProt Q96C23) | 0.0973 | 0.105 |
| GGNBP2_Q9H3C7_301_TIDIAQEEVLTCLGIHLYER (UniProt Q9H3C7) | 0.0625 | 0.0445 |
| GALNT12_Q8IXK2_125_WNPLCK (UniProt Q8IXK2) | -0.0726 | -0.0389 |
| GALM_Q96C23_305_HSGFCLETQNWPDAVNQPR (UniProt Q96C23) | -0.111 | 0.186 |
| GGA1_Q9UJY5_73_IQSPQEWEAIQALTVLETCMK (UniProt Q9UJY5) | 0.0502 | -0.0197 |
| GAS7_O60861_318_CDHHIADLR (UniProt O60861) | 0.115 | 0.151 |
| GAMT_Q14353_91_VQEAPIDEHWIIECNDGVFQR (UniProt Q14353) | -0.0655 | -0.021 |
| GDAP2_Q9NXN4_348_ALYQTGVDNCGR (UniProt Q9NXN4) | -0.0283 | -0.121 |
| GIMAP1_Q8WWP7_76_CHVEVVDTPDIFSSQVSK (UniProt Q8WWP7) | 0.278 | -0.00806 |
| GBA2_Q9HCG7_511_NMCHLRPTLR (UniProt Q9HCG7) | -0.0815 | 0.146 |
| GCLM_P48507_35+46_CPSTHSEELHDCIQK (UniProt P48507) | 0.0628 | -0.235 |
| GINS4_Q9BRT9_53_FAPELLESKPEIVECVMEQLEHMEENLRR (UniProt Q9BRT9) | -0.0824 | -0.0223 |
| GFI1_Q99684_398_KHTGFKPFGCDLCGK (UniProt Q99684) | -0.114 | 0.02 |
| GAPVD1_Q14C86_789_SECSSDFGGK (UniProt Q14C86) | 0.0422 | -0.102 |
| GCN1_Q92616_1275_CMLDAALATLNTHGK (UniProt Q92616) | 0.00529 | -0.0947 |
| GCN1_Q92616_1527_AGSVELLGAMAYCAPK (UniProt Q92616) | 0.0862 | 0.15 |
| GIMAP2_Q9UG22_201_ELMDCIEDLLMEK (UniProt Q9UG22) | 0.0633 | 0.296 |
| GANAB_Q14697_41+47_TCEESSFCK (UniProt Q14697) | -0.0249 | -0.041 |
| GAPVD1_Q14C86_71_LIITSAEASPAECCQHAK (UniProt Q14C86) | 0.107 | 0.12 |
| GALK2_Q01415_349_ICEEAPENMVQLLGELMNQSHMSCR (UniProt Q01415) | 0.43 | -0.18 |
| GALK1_P51570_203_GHALLIDCR (UniProt P51570) | 0.208 | 0.167 |
| GDI1_P31150_302_IICILSHPIK (UniProt P31150) | -0.015 | 0.0665 |
| GAR1_Q9NY12_88_CTTDENK (UniProt Q9NY12) | -0.252 | -0.245 |
| GCAT_O75600_349_MEAAGFTISGASHPICPVMLGDAR (UniProt O75600) | 0.0843 | 0.0388 |
| GALNT2_Q10471_539_HVGSNLCLDSR (UniProt Q10471) | 0.0761 | 0.115 |

Laid out differently: entries from further up
GAPVD1_Q14C86_789_SECSSDFGGK (UniProt Q14C86)
  probe-labelled cysteine peptide fold change (10 µM) = 0.0422; probe-labelled cysteine peptide fold change (50 µM) = -0.102
GCN1_Q92616_1275_CMLDAALATLNTHGK (UniProt Q92616)
  probe-labelled cysteine peptide fold change (10 µM) = 0.00529; probe-labelled cysteine peptide fold change (50 µM) = -0.0947
